In patent publication US20240327414A1, “CYCLOPROPYL-(HETERO)ARYL-SUBSTITUTED ETHYL- SULFONE / SULFOXIMINE-PYRIDINE N-OXIDE DERIVATIVES” (Boehringer Ingelheim Vetmedica GmbH, priority 2023, published 2024):
Some of these results come from one statement about several compounds together.

System: adult C. felis fleas
Assay: Ingestion activity against adult Ctenocephalides felis (membrane feeding, motility)
Conditions: ingestion in bovine blood, % motility reduction 48h post treatment
Protocol: Example 6: Screening Method to Test Ingestion Activity of N-Oxide Compounds of Formula (I), (Ia) or (Ib) Against Adult Ctenocephalides felis
N-oxide compounds of formula (I), (Ia) and (Ib) dissolved in 100% DMSO are added to bovine blood and offered via an artificial membrane feeding system to adult C. felis fleas. The motility of fleas is then visually inspected 48h post treatment. Efficacy is expressed in % motility reduction compared to controls containing blood treated with DMSO only. A dose response series is implemented to determine EC50 values.

Compound | EC50 [µM]
CCS(=O)(=O)c1cc(-c2ccc(C3(F)CC3)cc2)cnc1-c1nc2cc(C(F)(F)C(F)(F)F)n[n+]([O-])c2n1C [Compound 36] | < 10

System: Myzus persicae
Assay: Insecticidal test on Myzus persicae
Assay type: in vivo
Conditions: 500 ppm, foliar application on Chinese cabbage, 6 days after the application

Compound | control efficacy level (control rate)
CCS(=O)(=O)c1cc(-c2ccc(C3(F)CC3)cc2)c[n+]([O-])c1-c1nc2cc(C(F)(F)C(F)(F)F)nnc2n1C [Compound 27] | A (the control rate is 100%)
CCS(=O)(=O)c1cc(-c2noc(C3CC3)n2)cnc1-c1nc2cc(C(F)(F)C(F)(F)F)n[n+]([O-])c2n1C [Compound 1, 6-[5-(5-cyclopropyl-1,2,4-oxadiazol-3-yl)-3-(ethanesulfonyl)pyridin-2-yl]-7-methyl-3-(1,1,2,2,2-pentafluoroethyl)-7H-imidazo[4,5-c]pyridazin-1-ium-1-olate] | A (the control rate is 100%)
CCS(=O)(=O)c1cc(-c2ccc(C3(F)CC3)cc2)cnc1-c1nc2cc(C(F)(F)C(F)(F)F)n[n+]([O-])c2n1C [Compound 36] | A (the control rate is 100%)
CCS(=O)(=O)c1cc(-c2noc(C3CC3)n2)cnc1-c1nc2cc(C(F)(F)C(F)(F)F)c[n+]([O-])c2n1C [Compound 33] | A (the control rate is 100%)
CCS(=O)(=O)c1cc(-c2noc(C3(C(F)(F)F)CC3)n2)cnc1-c1nc2cc(C(C)(F)F)n[n+]([O-])c2n1C [Compound 8] | A (the control rate is 100%)
CCS(=O)(=O)c1cc(-c2noc(C3CC3)n2)cnc1-c1nc2cc(C(C)(F)F)n[n+]([O-])c2n1C [Compound 39] | A (the control rate is 100%)
